Test results reported in EP0392976A1, “Monoclonal antibodies to tetracyclic compounds, processes for their production, and applications” (CIBA-GEIGY AG, priority 1989, dated 1990).

Key:
Experiment in all cases: inhibition enzyme immunoassay: inhibition of MAb binding to surface bound R-(-)-oxaprotiline-mucin conjugate
Parameters in all cases: species or system mouse
Settings in all cases: read-out: IC₅₀
MAb 1228P63.1 = target: MAb 1228P63.1
Method: (§1) The affinities of the monoclonal antibodies of the invention to R-(-)-oxaprotiline can for example be determined in an inhibition enzyme immunoassay according to Friguet et al. (J. Immunol. Methods 77, 305, 1985) wherein the monoclonal antibody to be tested is preincubated with R-(-)-oxaprotiline and, in a second step, exposed to a solid phase coated with an adsorbable conjugate of R-(-)-oxaprotiline, e.g. a protein conjugate. The fraction of the monoclonal antibody not engaged in immunocomplexes binds to the solid phase and is quantified by a secondary antibody-enzyme conjugate directed against the monoclonal antibody. The affinities are expressed as IC₅₀ (inhibition concentration) values, i.e. the concentration of free antigen causing a 50 % inhibition of antibody binding to the solid phase antigen.
(§2) The selectivity of the monoclonal antibodies of the invention is tested by analyzing inhibition of monoclonal antibody binding to R-(-)-oxaprotiline by structurally similar compounds, e.g. by other dibenzobicyclo[2.2.2]octadiene compounds which differ from R-(-)-oxaprotiline by chemical modifications of the tetracyclic ring structure and/or the aliphatic side chain, by therapeutic compounds lacking the dibenzobicyclo[2.2.2]octadiene skeleton which are potentially used in combination with the antidepressant, and by the enantiomer S-(+)-oxaprotiline. This can be done, for example, in an inhibition enzyme immunoassay wherein the monoclonal antibodies of the invention are preincubated with any of the soluble compounds listed above and the incubation mixture is then tested in the enzyme immunoassay described above.
(§3) The conjugate solution (0.66 mg/ml) is diluted 1000-fold in coating buffer pH 9.8 (477 mg sodium carbonate, 897 mg sodium hydrogen carbonate, 60 mg sodium azide, 300 ml distilled water) and incubated in the wells of a microtitre plate for 2 days at 4°C. The wells are washed three times with PBS containing Tween 20 (Sigma, 0.1 %). Residual adsorption sites on the plate are saturated by incubation with 100 µl of PBS/Tween 20 for 1 h. […] The substrate gives a yellow coloration which is measured with a colorimeter (Titertek Multiskan) at a wave length of 405 nm after 60 min.
(§4) The assay is carried out as described in the following. […] The incubation mixture is then transferred to R-(-)-oxaprotiline-mucin coated microtitre plates and the relative concentration of antibody not engaged in immunocomplexes with the soluble compound is determined as described in example 1.4.
(§5) The capacity of free R-(-)-oxaprotiline and of a number of compounds which are structurally analogous to R-(-)-oxaprotiline to inhibit the binding of the monoclonal antibodies of the invention to the antigen is determined in an inhibition enzyme immunoassay essentially as described in example 3.2. […]

MAb 1225S93.2 = target: MAb 1225S93.2
Method: as §1, §2, §3, §4, §5

MAb 1219S78.6 = target: MAb 1219S78.6
Method: as §1, §2, §3, §4, §5

MAb 1219S59.11 = target: MAb 1219S59.11
Method: as §1, §2, §3, §4, §5

- IC50 (MAb 1228P63.1): 1.05 nM
- IC50 (MAb 1225S93.2): 0.44 nM
- IC50 (MAb 1219S78.6): 0.315 nM
- IC50 (MAb 1219S59.11): 2.55 nM
Structure (SMILES): CNCCCC12CCC(c3ccccc31)c1ccccc12 [compound 6, 1-(3-methylamino-propyl)-dibenzo[b,e]-bicyclo[2.2.2]-octadiene-hydro-chloride]
